Results are given in words; binding and its absence hold for the method and conditions named. For some assays here: Binding seen in cells or lysates may run through a third protein. Some results given as binding are weak or reduced against the parent protein; the word gives no strength. For some assays here: Sequences can lack the tags named with a protein.
Assays:
[1] = molecular target: T1, IFNAR1-IC domain fused to the Gal4 DNA binding domain (pGBT10-IFNAR1-IC) (human) (UniProt P04386+P17181); test: yeast two-hybrid
[2] = molecular target: T1, IFNAR1-IC domain fused to the Gal4 DNA binding domain (pGBT10-IFNAR1-IC) (human); test: yeast two-hybrid in SFY526, X-gal staining positive
[3] = molecular target: T2, GST-IFNAR1-IC fusion protein (Glutathione S-transferase fused to the 100 amino acid long IFNAR1-IC domain) (human) (UniProt P17181); test: GST pull-down
T2 sequence (looked up): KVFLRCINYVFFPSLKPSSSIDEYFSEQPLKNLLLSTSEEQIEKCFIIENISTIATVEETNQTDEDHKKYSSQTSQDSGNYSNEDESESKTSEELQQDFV

Chains of the proteins cited; added tags and fusions are not shown. Lines headed by an entry give the natural chain unless they say otherwise; changes in a name come on top.
UniProt Q99873: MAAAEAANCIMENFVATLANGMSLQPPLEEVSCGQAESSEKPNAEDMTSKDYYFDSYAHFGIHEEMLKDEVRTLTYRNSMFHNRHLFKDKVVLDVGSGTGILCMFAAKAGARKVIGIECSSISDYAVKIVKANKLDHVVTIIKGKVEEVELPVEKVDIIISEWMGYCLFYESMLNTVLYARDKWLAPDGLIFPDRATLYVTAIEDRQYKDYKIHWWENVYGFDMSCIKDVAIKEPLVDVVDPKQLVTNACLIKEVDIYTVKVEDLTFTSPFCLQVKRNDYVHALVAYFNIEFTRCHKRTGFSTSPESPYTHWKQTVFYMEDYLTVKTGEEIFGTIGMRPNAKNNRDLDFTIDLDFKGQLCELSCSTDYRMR

[4] = molecular target: T2, GST-IFNAR1-IC fusion protein (Glutathione S-transferase fused to the 100 amino acid long IFNAR1-IC domain) (human); test: GST pull-down on glutathione beads, SDS-PAGE, Phosphor-Imager
[5] = molecular target: intact IFNAR1 from human cells (IFNAR1 chain of the type I interferon receptor) (human) (UniProt P17181); test: co-immunoprecipitation with anti-flag from transfected Cos-7 cells
[6] = molecular target: intact IFNAR1 from human cells (IFNAR1 chain of the type I interferon receptor) (human) (UniProt P17181); test: co-immunoprecipitation with anti-IFNAR1 mAb R3 on protein G beads
[7] = molecular target: intact IFNAR1 from human cells (IFNAR1 chain of the type I interferon receptor) (human) (UniProt P17181); test: co-immunoprecipitation of labeled flag-IR1B4 with IFNAR1 from U266S extracts by Ab 631
[8] = molecular target: intact IFNAR1 from human cells (IFNAR1 chain of the type I interferon receptor) (human) (UniProt P17181); test: co-immunoprecipitation of labeled flag-IR1B4 with IFNAR1 from U266S detergent extracts by mAb IFNaR3

Measured: binding

IR1B4 fused to the Gal4 activation domain (pACT clone IR1B4) (from UniProt Q99873 11-371)
binds: [1] | [2]

flag-IR1B4 (IR1B4 protein with a flag tag, translated in vitro in rabbit reticulocyte lysate, [35S]methionine labeled) (from UniProt Q99873 11-371)
not listed: [1] | [2]
binds: all other assays above
